The structures appear in SMILES notation. Counter-ions that a name gives are not always drawn. The list shows a part of the results. Most values lie at the level of the controls, where differences are scatter.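 Differential scanning fluorimetry gave melting temperatures in a one-replicate pilot screen of a library of approved drugs plus clinical or known-target compounds. Hits increasing melting point at least 2 °C were the strongest stabilizers, while negative shifts signify destabilization.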

The text below walks through data of the supplement of paper PMC8166895.

The subject of the experiment is SARS-CoV-2 main protease (Mpro, nsp5). The experiment is described as follows: thermal shift ΔTm of Mpro relative to plate average Tm; higher = stronger thermal stabilization of Mpro (binding). To be noted: 10 µM; protein concentration 1 µM.
For `NS(=O)(=O)Cc1noc2ccccc12` [Zonisamide], the “thermal shift ΔTm of Mpro” value was 0.133 °C. With `CN(C)CCN(Cc1ccc(Cl)cc1)c1ccccn1` [Chloropyramine hydrochloride] the figure was 0.156 °C; with `CC(=O)c1cc([N+](=O)[O-])c(Sc2ccc(F)cc2F)s1`, 0.0141 °C. With `Cc1nn2c([nH]c(=O)c3cccnc32)c1C#N` the figure was 0.151 °C; with `Cc1cn([C@H]2C[C@H](N=[N+]=[N-])[C@@H](CO)O2)c(=O)[nH]c1=O` [Zidovudine], 0.0052 °C; with `COc1ccc([C@@H]2Sc3ccccc3N(CCN(C)C)C(=O)[C@@H]2OC(C)=O)cc1` [Diltiazem HCl], 0.0578 °C.

Turning to `O=C(NCCO)c1ccc(-c2cc(Nc3ccc(OC(F)(F)F)cc3)ncn2)cc1` [Multi-kinase inhibitor I], the “thermal shift ΔTm of Mpro” value is -0.033 °C. Turning to `Cc1sc2c(c1C)C(c1ccc(Cl)cc1)=N[C@@H](CC(=O)OC(C)(C)C)c1nnc(C)n1-2`, the “thermal shift ΔTm of Mpro” value is -0.0889 °C.

As for `Cc1c(Cc2ccc3ccccc3n2)c2cc(F)ccc2n1CC(=O)O` [Timapiprant], the “thermal shift ΔTm of Mpro” value was -0.0336 °C. With `Cc1c(Cc2ccc3ccccc3n2)c2cc(F)ccc2n1CC(=O)O` the figure was -0.216 °C; with `CO[C@@H](C(=O)N1Cc2[nH]nc(NC(=O)c3ccc(N4CCN(C)CC4)cc3)c2C1)c1ccccc1`, 0.229 °C; with `CCN(CCO)CCCOc1ccc2c(Nc3cc(CC(=O)Nc4cccc(F)c4)[nH]n3)ncnc2c1` [Barasertib (AZD1152-HQPA)], 0.0493 °C.

As to `C=CC(=O)N1CCC(Oc2cc3c(Nc4ccc(Cl)c(Cl)c4F)ncnc3cc2OC)CC1` [Poziotinib (HM781-36B)], the “thermal shift ΔTm of Mpro” value is -0.213 °C. Consider `O=C(OC(C(F)(F)F)C(F)(F)F)N1CCC(C(O)(c2ccc3c(c2)OCO3)c2ccc3c(c2)OCO3)CC1`, for which the “thermal shift ΔTm of Mpro” value came out at 0.0776 °C. Next, `O=C(Nc1cccc(-c2ccccc2)c1)OC1CCCCC1`: 0.00491 °C.

As for `C=CN1CCCC1=O.II` [Povidone-iodine], the “thermal shift ΔTm of Mpro” value came out at 0.128 °C. With `OC1CN(CCCOCCc2ccc3sccc3c2)C1` [Edonerpic maleate], the “thermal shift ΔTm of Mpro” value was -0.00371 °C. As to `Cc1ccc(-c2ncc(Cl)cc2-c2ccc(S(C)(=O)=O)cc2)cn1` [Etoricoxib], the “thermal shift ΔTm of Mpro” value worked out at 0.355 °C.

`NCC(=O)O` [Magnesium glycinate]: the “thermal shift ΔTm of Mpro” value is 0.314 °C. With `CC1CCc2c(N3CCC(O)CC3)c(F)cc3c(=O)c(C(=O)O)cn1c23` (configuration not stated) [Nadifloxacin] the figure was -0.0438 °C; with `OC[C@H]1O[C@@H](c2ccc(F)c(Cc3cc4ccccc4s3)c2)[C@H](O)[C@@H](O)[C@@H]1O` [Ipragliflozin], 0.0508 °C. For the compound `Clc1ccc(COC(Cn2ccnc2)c2ccc(Cl)cc2Cl)c(Cl)c1` (configuration not stated) [Miconazole], the “thermal shift ΔTm of Mpro” value is -0.336 °C.

Turning to `Clc1ccc(COC(Cn2ccnc2)c2ccc(Cl)cc2Cl)c(Cl)c1` (configuration not stated) [Miconazole Nitrate], the “thermal shift ΔTm of Mpro” value was -0.00772 °C.

For `Cc1cc(=O)n(-c2ccccc2)n1C` [Antipyrine], the “thermal shift ΔTm of Mpro” value was determined as 0.182 °C. With `O=C(NCCN1CCC(n2c(=O)[nH]c3ccccc32)CC1)c1cc2cc(F)ccc2[nH]1` the figure was -0.156 °C; with `CS(=O)(=O)n1cc2c(n1)CN([C@H]1CO[C@H](c3cc(F)ccc3F)[C@@H](N)C1)C2` [Omarigliptin], 0.0526 °C; with `CCCN(CCc1cccs1)[C@H]1CCc2c(O)cccc2C1` [Rotigotine], -0.12 °C. For `NC12CC3CC(CC(C3)C1)C2` [Amantadine HCl], the “thermal shift ΔTm of Mpro” value is -0.0364 °C.

For `CCOc1ccc2nc(SCCN3CCOCC3)[nH]c2c1` [Fabomotizole], the “thermal shift ΔTm of Mpro” value worked out at 0.137 °C. For the compound `CCOc1ccc2nc(SCCN3CCOCC3)[nH]c2c1` [Afobazole hydrochloride], the “thermal shift ΔTm of Mpro” value is -0.0484 °C.

As to `Cn1ncc(Cl)c1-c1cc(C(=O)N[C@H](CN)Cc2cccc(F)c2)sc1Cl`, the “thermal shift ΔTm of Mpro” value was -0.289 °C. With `CO[C@H]1O[C@@H]2O[C@@]3(C)CC[C@H]4[C@H](C)CC[C@@H]([C@H]1C)[C@@]24OO3` [Artemether] the figure was -0.0197 °C; with `CC(C)(C)C[C@@H]1N[C@@H](C(=O)N[C@H]2CC[C@H](O)CC2)[C@H](c2cccc(Cl)c2F)[C@]12C(=O)Nc1cc(Cl)ccc12`, -0.67 °C. With `O=c1c2ccccc2oc2ccccc12` [Xanthone] the figure was -0.0012 °C; with `O=c1cc(-c2ccc(O)c(O)c2)oc2cc(O)cc(O)c12` [Luteolin], -0.833 °C.

For the compound `CCOc1cc(C(=O)N2CCC(N3CCN(C)CC3)CC2)ccc1Nc1ncc2c(n1)N(C1CCCC1)c1ccccc1C(=O)N2C`, the “thermal shift ΔTm of Mpro” value is -0.45 °C.

Regarding `O=C(NOCCO)c1ccc2cncn2c1Nc1ccc(I)cc1F`, the “thermal shift ΔTm of Mpro” value was found to be 0.983 °C. Regarding `CC(=O)Nc1ccc(NC(=S)NC(=O)c2ccc(C(C)(C)C)cc2)cc1` [Tenovin-1], the “thermal shift ΔTm of Mpro” value is -0.163 °C.

For `CC(C)(C(=O)c1cccnc1)c1cccnc1` [Metyrapone], the “thermal shift ΔTm of Mpro” value was 0.318 °C. For `O=C(O)[C@H]1C2CCC(CC2)[C@@H]1Nc1nc(-c2c[nH]c3ncc(F)cc23)ncc1F` [Pimodivir], the “thermal shift ΔTm of Mpro” value was -0.0579 °C.

With `Nc1ncn([C@H]2C[C@H](O)[C@@H](CO)O2)c(=O)n1` [Decitabine], the “thermal shift ΔTm of Mpro” value was 0.137 °C. Next, `O=C(Cc1ccc(-c2ccc(OCCN3CCOCC3)cc2)cn1)NCc1ccccc1`: -0.176 °C.
